Here are results for two substances from paper PMC9482633.

Chains of the proteins cited; added tags and fusions are not shown.
UniProt Q16665: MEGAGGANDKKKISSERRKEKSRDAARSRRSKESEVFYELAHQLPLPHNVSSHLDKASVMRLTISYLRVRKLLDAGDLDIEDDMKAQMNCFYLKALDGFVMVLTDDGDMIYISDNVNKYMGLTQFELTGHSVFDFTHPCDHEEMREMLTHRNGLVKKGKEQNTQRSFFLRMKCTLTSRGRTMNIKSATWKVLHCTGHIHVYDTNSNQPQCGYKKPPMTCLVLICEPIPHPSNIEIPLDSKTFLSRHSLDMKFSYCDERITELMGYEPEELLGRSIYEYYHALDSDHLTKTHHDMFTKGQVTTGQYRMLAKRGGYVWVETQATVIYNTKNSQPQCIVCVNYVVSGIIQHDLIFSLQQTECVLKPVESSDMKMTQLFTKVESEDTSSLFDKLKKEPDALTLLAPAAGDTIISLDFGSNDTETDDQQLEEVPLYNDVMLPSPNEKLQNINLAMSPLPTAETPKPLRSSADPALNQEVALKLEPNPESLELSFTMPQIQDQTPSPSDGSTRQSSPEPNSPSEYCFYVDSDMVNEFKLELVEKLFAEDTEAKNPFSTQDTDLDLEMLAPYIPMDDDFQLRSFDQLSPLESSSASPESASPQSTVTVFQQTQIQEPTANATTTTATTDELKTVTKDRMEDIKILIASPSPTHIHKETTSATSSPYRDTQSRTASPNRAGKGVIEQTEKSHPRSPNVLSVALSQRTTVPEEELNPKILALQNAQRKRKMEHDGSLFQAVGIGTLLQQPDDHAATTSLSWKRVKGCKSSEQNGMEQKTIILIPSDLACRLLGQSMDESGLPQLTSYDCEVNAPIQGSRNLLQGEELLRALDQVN
UniProt Q16877: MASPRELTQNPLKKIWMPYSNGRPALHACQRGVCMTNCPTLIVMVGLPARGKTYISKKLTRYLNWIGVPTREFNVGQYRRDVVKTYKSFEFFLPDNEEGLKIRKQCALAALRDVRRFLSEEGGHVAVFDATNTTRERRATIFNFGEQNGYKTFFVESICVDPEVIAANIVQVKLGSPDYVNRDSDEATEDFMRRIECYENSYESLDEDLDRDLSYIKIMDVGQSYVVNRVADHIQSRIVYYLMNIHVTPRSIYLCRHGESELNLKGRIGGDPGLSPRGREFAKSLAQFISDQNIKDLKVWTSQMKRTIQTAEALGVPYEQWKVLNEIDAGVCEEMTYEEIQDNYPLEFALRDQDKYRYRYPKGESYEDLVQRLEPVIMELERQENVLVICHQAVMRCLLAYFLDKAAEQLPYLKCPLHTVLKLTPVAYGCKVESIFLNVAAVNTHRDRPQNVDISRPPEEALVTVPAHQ

Results are given in words; binding and its absence hold for the method and conditions named. Binding seen in cells or lysates may run through a third protein. Some results given as binding are weak or reduced against the parent protein; the word gives no strength. For some assays here: Sequences can lack the tags named with a protein.

One test has as its target T1, FBXO28-Halo (UniProt Q9NVF7).
T1 sequence: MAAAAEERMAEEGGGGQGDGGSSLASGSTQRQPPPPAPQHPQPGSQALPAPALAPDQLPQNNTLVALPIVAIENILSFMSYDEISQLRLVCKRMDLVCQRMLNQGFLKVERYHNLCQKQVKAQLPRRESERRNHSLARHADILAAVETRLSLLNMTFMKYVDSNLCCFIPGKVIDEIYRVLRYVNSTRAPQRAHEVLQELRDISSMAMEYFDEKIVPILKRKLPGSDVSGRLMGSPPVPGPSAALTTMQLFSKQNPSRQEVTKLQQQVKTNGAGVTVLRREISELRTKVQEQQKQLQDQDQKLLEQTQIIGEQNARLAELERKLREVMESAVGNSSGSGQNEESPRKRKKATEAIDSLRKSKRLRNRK
Nature of the test: pull-down; FBXO28-Halo and HIF-1α overexpressed in HEK293T cells; pulldown on Halo resin, elution by TEV cleavage; immunoblot with FBXO28 and HIF-1α antibodies. On the technique in general: In western blotting, separated proteins are transferred to a membrane and probed.

Test [1] addresses T2, SmBiT-tagged FBXO28 (N-term) (UniProt Q9NVF7).
T2 sequence: T1 sequence
Nature of the test: split reporter; split NanoLuc luciferase in HEK293T cells, competition: increasing amounts of untagged PFKFB4 pLVX plasmid, empty pLVX as control; percent inhibition.

On to “hypoxia inducible factor 1-alpha (HIF-1α) (from UniProt Q16665 1-826)”, for which, in the test with FBXO28-Halo, the binding result was “binds”.

Take “untagged PFKFB4 (pLVX plasmid) (from UniProt Q16877 1-469) (enzyme)”: the binding result in test [1] is given as “binds”.
